The list shows only some results of the screen, not a fair sample: it gathers tests that were run many times, whatever their T/C, doses with no T/C, and many T/C values between a quarter and a half above the control. Other doses and runs of a compound stand elsewhere. T/C: endpoint of the treated group in % of that of the vehicle group. Some entries give survivors of the animals treated and no T/C: the source files T/C as zero there, which appears to mark a toxic dose or a test without result, not a measured value. Some doses without a T/C left all or most animals alive at the check, yet need not have been tolerated: survival well below the control is almost never listed, so the zero probably covers shortened survival too. Counts of survivors are from the toxicity check (mostly the fifth day) where no day follows; animals may have died later. Schedules are NCI's codes, read here as Q, the interval in days (D) or hours (H), X, the number of doses. Some entries hold several experiments; the values are given in rising order. For survival time, the PubChem record calls one and a half times the control and up active, and a quarter to a half above the control has no call in these data; cut-offs in other NCI protocols can differ. Some T/C values are followed by the survivors on the day toxicity was checked, most often the fifth; without a count, all were alive then.
System: CD2F1 mice, L1210 leukemia ip, survival T/C
Test: NCI In Vivo Anticancer Drug Screen. Data for tumor model L1210 Leukemia (intraperitoneal) in CD2F1 (CDF1) mice
Details: higher T/C = longer survival
Summary of the method: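 Each value reflects a quotient of treated over vehicle control outcomes in mice with a transplanted tumor.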

[1] = T/C endpoint: mean survival time, dose: 400.0 mg/kg/injection, schedule: Q04DX003 (ip), vehicle: other
[2] = T/C endpoint: mean survival time, dose: 300.0 mg/kg/injection, schedule: Q01DX001 (ip), vehicle: saline
[3] = T/C endpoint: mean survival time, dose: 100.0 mg/kg/injection, schedule: Q01DX009 (ip), vehicle: saline
[4] = T/C endpoint: mean survival time, dose: 200.0 mg/kg/injection, schedule: Q04DX003 (ip), vehicle: saline

With `[Cl][Pt][Cl].[NH-]C(CO)C(=O)O` (stereo not given) the survivor count (T/C endpoint: mean survival time, dose: 200.0 mg/kg/injection, schedule: Q04DX003 (ip), vehicle: water) was 0 of 6, the survivor count (T/C endpoint: median survival time, dose: 50.0 mg/kg/injection, schedule: Q01DX009 (ip), vehicle: water) was 3 of 6 and the survivor count (T/C endpoint: median survival time, dose: 100.0 mg/kg/injection, schedule: Q01DX009 (ip), vehicle: water) was 0 of 6.
For `COc1cc([C@@H]2c3cc4c(c(O)c3C[C@H]3COC(=O)[C@@H]32)OCO4)cc(OC)c1O`, the survivor count (T/C endpoint: mean survival time, dose: 4000.0 micrograms/kg/injection, schedule: Q01DX009 (ip), vehicle: saline) was 6 of 6.
With `CC(Cl)CN(CC(C)Cl)c1ccc(S(=O)(=O)Nc2ncccn2)cc1` (stereo not given) the T/C (T/C endpoint: mean survival time, dose: 53.0 mg/kg/injection, schedule: Q01DX009 (ip), vehicle: other) was 125 % of control, the T/C (T/C endpoint: mean survival time, dose: 80.0 mg/kg/injection, schedule: Q01DX009 (ip), vehicle: other) was 125 % of control and the survivor count (T/C endpoint: mean survival time, dose: 120.0 mg/kg/injection, schedule: Q01DX009 (ip), vehicle: other) was 3 of 6. The survivor count (T/C endpoint: mean survival time, dose: 180.0 mg/kg/injection, schedule: Q01DX009 (ip), vehicle: other) was 2 of 6.
For `O=c1[nH]nc([O-])c2c1[n+](Cc1ccccc1)cn2Cc1ccccc1`, the survivor count (T/C endpoint: mean survival time, dose: 150.0 mg/kg/injection, schedule: Q01DX005 (ip), vehicle: water) was 3 of 3.
`CCN1C(=O)CSC1=S` was tested, and the survivor count (T/C endpoint: mean survival time, dose: 100.0 mg/kg/injection, schedule: Q04DX002 (ip), vehicle: other) was 3 of 6, the survivor count (T/C endpoint: mean survival time, dose: 200.0 mg/kg/injection, schedule: Q04DX002 (ip), vehicle: other) was 3 of 6 and the survivor count (T/C endpoint: mean survival time, dose: 400.0 mg/kg/injection, schedule: Q01DX009 (ip), vehicle: other) was 0 of 6. For the same molecule, the survivor count (T/C endpoint: mean survival time, dose: 400.0 mg/kg/injection, schedule: Q04DX002 (ip), vehicle: other) was 3 of 6, the survivor count [1] was 2 of 6 and the survivor count (T/C endpoint: mean survival time, dose: 600.0 mg/kg/injection, schedule: Q01DX001 (ip), vehicle: other) was 0 of 6. For the same molecule, the survivor count (T/C endpoint: mean survival time, dose: 600.0 mg/kg/injection, schedule: Q04DX002 (ip), vehicle: other) was 0 of 6 and the survivor count (T/C endpoint: mean survival time, dose: 600.0 mg/kg/injection, schedule: Q04DX003 (ip), vehicle: other) was 0 of 6.
For `O=C(NCCCN1CC1)C(=O)NCCCN1CC1`, the T/C (T/C endpoint: mean survival time, dose: 0.78 mg/kg/injection, schedule: Q01DX009 (ip), vehicle: saline) was 136 % of control, the T/C (T/C endpoint: mean survival time, dose: 1.56 mg/kg/injection, schedule: Q01DX009 (ip), vehicle: saline) was 134 % of control and the T/C (T/C endpoint: mean survival time, dose: 3.13 mg/kg/injection, schedule: Q01DX009 (ip), vehicle: saline) was 143 % of control.
In the case of `O=C(CC(O)(C(F)(F)F)C(F)(F)F)c1ccc(C(=O)CC(O)(C(F)(F)F)C(F)(F)F)cc1`, the survivor count [1] is reported as 1 of 6.
With `CNC(=O)O/N=C(\CN=[N+]=[N-])C(C)(C)C` the survivor count (T/C endpoint: median survival time, dose: 2.0 mg/kg/injection, schedule: Q01DX009 (ip), vehicle: saline) was 1 of 6.
`CC1CC[N-]CC1.CC1CC[N-]CC1.CC1CC[N-]CC1.CC1CC[N-]CC1.CS(C)=O.CS(C)=O.[Cl-].[Cl-].[Cl-].[Cl-].[Pt+4].[Rh+3]` was tested, and the survivor count (T/C endpoint: mean survival time, dose: 6.25 mg/kg/injection, schedule: Q04DX003 (ip), vehicle: Klucel (hydroxypropylcellulose) (HPC)) was 5 of 6, the survivor count (T/C endpoint: mean survival time, dose: 12.5 mg/kg/injection, schedule: Q04DX003 (ip), vehicle: water) was 0 of 6 and the survivor count (T/C endpoint: mean survival time, dose: 25.0 mg/kg/injection, schedule: Q04DX003 (ip), vehicle: water) was 0 of 6. The survivor count (T/C endpoint: mean survival time, dose: 50.0 mg/kg/injection, schedule: Q04DX003 (ip), vehicle: Klucel (hydroxypropylcellulose) (HPC)) was 0 of 6, the survivor count (T/C endpoint: mean survival time, dose: 50.0 mg/kg/injection, schedule: Q04DX003 (ip), vehicle: water) was 0 of 6 and the survivor count (T/C endpoint: mean survival time, dose: 100.0 mg/kg/injection, schedule: Q04DX003 (ip), vehicle: Klucel (hydroxypropylcellulose) (HPC)) was 0 of 6. For the same molecule, the survivor count (T/C endpoint: mean survival time, dose: 200.0 mg/kg/injection, schedule: Q04DX003 (ip), vehicle: Klucel (hydroxypropylcellulose) (HPC)) was 0 of 6 and the survivor count (T/C endpoint: mean survival time, dose: 400.0 mg/kg/injection, schedule: Q04DX003 (ip), vehicle: Klucel (hydroxypropylcellulose) (HPC)) was 0 of 6.
`CC1CC1Cc1ccccc1` (stereo not given) was tested, and the survivor count (T/C endpoint: mean survival time, dose: 200.0 mg/kg/injection, schedule: Q01DX001 (ip), vehicle: saline with Tween-80) was 6 of 6 and the survivor count (T/C endpoint: mean survival time, dose: 400.0 mg/kg/injection, schedule: Q01DX001 (ip), vehicle: saline with Tween-80) was 6 of 6.
With `CC(C)(Cc1ccc([N+](=O)[O-])cc1)[N+](=O)[O-]` the survivor count [2] was 1 of 6.
With `CCCCn1ccnc1C` the survivor count (T/C endpoint: mean survival time, dose: 50.0 mg/kg/injection, schedule: Q01DX009 (ip), vehicle: saline) was 1 of 6, the survivor count (T/C endpoint: mean survival time, dose: 50.0 mg/kg/injection, schedule: Q04DX003 (ip), vehicle: saline) was 6 of 6 and the survivor count [3] was 0 of 6. For the same molecule, the survivor count (T/C endpoint: mean survival time, dose: 100.0 mg/kg/injection, schedule: Q04DX003 (ip), vehicle: saline) was 0 of 6, the survivor count (T/C endpoint: mean survival time, dose: 200.0 mg/kg/injection, schedule: Q01DX009 (ip), vehicle: saline) was 0 of 6 and the survivor count [4] was 0 of 6.
With `CCC[CH2][Sn]1([CH2]CCC)[O]C2C(CO)OC(n3c(Br)c(C(N)=O)c4c(N)ncnc43)C2[O]1` (stereo not given) the survivor count (T/C endpoint: mean survival time, dose: 6.25 mg/kg/injection, schedule: Q01DX009 (ip), vehicle: distilled water + Tween-80) was 5 of 6, the survivor count (T/C endpoint: mean survival time, dose: 12.5 mg/kg/injection, schedule: Q01DX009 (ip), vehicle: distilled water + Tween-80) was 1 of 6 and the survivor count (T/C endpoint: mean survival time, dose: 25.0 mg/kg/injection, schedule: Q01DX009 (ip), vehicle: distilled water + Tween-80) was 0 of 6. For the same molecule, the survivor count (T/C endpoint: mean survival time, dose: 50.0 mg/kg/injection, schedule: Q01DX009 (ip), vehicle: distilled water + Tween-80) was 0 of 6, the survivor count (T/C endpoint: mean survival time, dose: 100.0 mg/kg/injection, schedule: Q01DX009 (ip), vehicle: distilled water + Tween-80) was 0 of 6 and the survivor count (T/C endpoint: mean survival time, dose: 200.0 mg/kg/injection, schedule: Q01DX009 (ip), vehicle: distilled water + Tween-80) was 0 of 6. The survivor count (T/C endpoint: mean survival time, dose: 400.0 mg/kg/injection, schedule: Q01DX009 (ip), vehicle: distilled water + Tween-80) was 0 of 6.
With `CN(C)N=Nc1cccc(C(N)=O)c1` the T/C (T/C endpoint: mean survival time, dose: 23.0 mg/kg/injection, schedule: Q01DX009 (ip), vehicle: Klucel (hydroxypropylcellulose) (HPC)) was 147 % of control, the T/C (T/C endpoint: mean survival time, dose: 39.0 mg/kg/injection, schedule: Q01DX009 (ip), vehicle: Klucel (hydroxypropylcellulose) (HPC)) was 147 % of control and the T/C (T/C endpoint: mean survival time, dose: 40.0 mg/kg/injection, schedule: Q01DX009 (ip), vehicle: Klucel (hydroxypropylcellulose) (HPC)) was 144 % of control. For the same molecule, the T/C (T/C endpoint: mean survival time, dose: 65.0 mg/kg/injection, schedule: Q01DX009 (ip), vehicle: Klucel (hydroxypropylcellulose) (HPC)) was 133 % of control and the survivor count (T/C endpoint: mean survival time, dose: 160.0 mg/kg/injection, schedule: Q01DX009 (ip), vehicle: Klucel (hydroxypropylcellulose) (HPC)) was 6 of 6.
`OCC1OC(n2cnc3cc(Cl)c(Cl)cc32)C(O)C1O` (stereo not given) was tested, and the T/C (T/C endpoint: median survival time, dose: 200.0 mg/kg/injection, schedule: Q01DX009 (ip), vehicle: saline with Tween-80, evaluated on day 25) was 148 % of control [5 of 6 alive], the T/C (T/C endpoint: median survival time, dose: 200.0 mg/kg/injection, schedule: Q01DX009 (ip), vehicle: saline with Tween-80, evaluated on day 30) was 128 % of control [5 of 6 alive] and the survivor count (T/C endpoint: median survival time, dose: 400.0 mg/kg/injection, schedule: Q01DX009 (ip), vehicle: saline with Tween-80) was 0 of 6, 1 of 6, 2 of 6. The survivor count (T/C endpoint: median survival time, dose: 800.0 mg/kg/injection, schedule: Q01DX009 (ip), vehicle: saline with Tween-80) was 0 of 6.
In the case of `COc1ccc(CC2=NCCc3cc(OC)c(OC)cc32)cc1OC`, the survivor count [3] is reported as 3 of 6, the survivor count [4] is reported as 0 of 6 and the survivor count (T/C endpoint: mean survival time, dose: 400.0 mg/kg/injection, schedule: Q04DX003 (ip), vehicle: saline) is reported as 0 of 6.
`Cc1cc2ccc(Cl)cc2[nH]1` was tested, and the survivor count (T/C endpoint: mean survival time, dose: 400.0 mg/kg/injection, schedule: Q01DX001 (ip), vehicle: other) was 1 of 4.
`COc1cc2cccc(N)c2cc1OC` was tested, and the survivor count (T/C endpoint: mean survival time, dose: 100.0 mg/kg/injection, schedule: Q01DX009 (ip), vehicle: water) was 0 of 6 and the survivor count (T/C endpoint: mean survival time, dose: 200.0 mg/kg/injection, schedule: Q01DX009 (ip), vehicle: water) was 1 of 6.
In the case of `CN1C2CCC1CC(OC(=O)c1ccc(O)cc1)C2` (stereo not given), the survivor count (T/C endpoint: mean survival time, dose: 75.0 mg/kg/injection, schedule: Q01DX001 (ip), vehicle: saline) is reported as 2 of 6, the survivor count (T/C endpoint: mean survival time, dose: 150.0 mg/kg/injection, schedule: Q01DX001 (ip), vehicle: saline) is reported as 0 of 6 and the survivor count [2] is reported as 0 of 6.
In the case of `N#CCc1[nH]nc2ncnc(N)c12`, the survivor count (T/C endpoint: mean survival time, dose: 200.0 mg/kg/injection, schedule: Q01DX005 (ip), vehicle: water) is reported as 2 of 6.

Source: PubChem BioAssay AID256 (DTP/NCI, 2004)
